Results are given in words; binding and its absence hold for the method and conditions named. Binding can be weak; no strength is given. Sequences can lack the tags named with a protein.
Molecular target: T1, B. subtilis CdaA catalytic domain (CdaACD), His-tagged (B. subtilis) (UniProt Q45589)
T1 sequence: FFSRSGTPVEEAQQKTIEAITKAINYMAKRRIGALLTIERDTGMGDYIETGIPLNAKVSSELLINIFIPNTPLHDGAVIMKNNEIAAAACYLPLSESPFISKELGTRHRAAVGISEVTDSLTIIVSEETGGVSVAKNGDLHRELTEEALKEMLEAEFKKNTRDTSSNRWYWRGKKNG
Experiment: SEC; lysates of the two E. coli strains mixed after the French press step, Ni-NTA affinity chromatography (both proteins His-tagged), then preparative Superdex 200 HiLoad 16/60 in 30 mM Tris pH 7.5, 150 mM NaCl; peak fractions on SDS-PAGE with Coomassie staining

Amino acid sequences for entries named in this document (tags omitted). A change or cut given only in a name is not applied to a line headed by its entry.
UniProt O34824: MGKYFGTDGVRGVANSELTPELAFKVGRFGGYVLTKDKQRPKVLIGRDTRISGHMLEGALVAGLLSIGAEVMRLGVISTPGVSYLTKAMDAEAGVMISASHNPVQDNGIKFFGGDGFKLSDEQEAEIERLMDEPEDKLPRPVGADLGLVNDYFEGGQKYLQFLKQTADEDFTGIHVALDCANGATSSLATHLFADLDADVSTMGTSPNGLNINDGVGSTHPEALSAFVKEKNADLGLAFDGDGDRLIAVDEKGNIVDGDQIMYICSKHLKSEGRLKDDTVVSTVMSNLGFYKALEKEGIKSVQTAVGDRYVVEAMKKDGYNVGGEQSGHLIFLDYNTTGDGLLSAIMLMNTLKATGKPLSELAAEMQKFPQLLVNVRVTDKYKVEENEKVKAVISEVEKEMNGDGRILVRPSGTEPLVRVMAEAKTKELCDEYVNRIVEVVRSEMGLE

binding: binds
Substance: B. subtilis GlmM D195A alanine substitution variant, His-tagged (from UniProt O34824) (enzyme)
